The list shows a part of the results.
Experiments:
Assay in all cases: log2 fold change, soluble protein after heating vs DMSO (PISA); higher = thermal stabilisation; K562 cells, 10 uM, 30 min; active = over 0.2 and 3.5 SD of the protein, either way, in both replicates (recomputed)
[1] = compound: CS(=O)(=O)c1ccc(-c2cnc(N)c(C(=O)Nc3ccccc3)n2)cc1
How it was run: (§1)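 K562 cells at 2×10^6 cells/mL were exposed to 10 μM compound for 30 min, then aliquots were heated for 3 min across 48°C-58°C, pooled, and extracted in PBS containing 0.5% NP-40 at 4°C. The supernatant after 21,000xg for 90 min was taken as soluble protein and measured by TMTpro 16plex LC-MS/MS with channel sums equalised. Thermal stability is reported relative to control samples, with values from duplicates. Fold changes are given on a log2 scale.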

Chains of the proteins cited; added tags and fusions are not shown. Lines headed by an entry give the natural chain unless they say otherwise; changes in a name come on top.
UniProt O60911: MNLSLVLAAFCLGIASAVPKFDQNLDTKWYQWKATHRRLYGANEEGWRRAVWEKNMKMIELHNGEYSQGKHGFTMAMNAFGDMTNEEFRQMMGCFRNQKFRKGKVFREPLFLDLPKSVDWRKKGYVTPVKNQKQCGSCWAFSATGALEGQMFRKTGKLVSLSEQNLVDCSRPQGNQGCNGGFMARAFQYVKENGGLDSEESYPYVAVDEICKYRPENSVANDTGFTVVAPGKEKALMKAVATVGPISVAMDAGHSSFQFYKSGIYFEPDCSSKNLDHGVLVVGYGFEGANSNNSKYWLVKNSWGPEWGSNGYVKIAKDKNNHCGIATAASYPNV
UniProt Q14118: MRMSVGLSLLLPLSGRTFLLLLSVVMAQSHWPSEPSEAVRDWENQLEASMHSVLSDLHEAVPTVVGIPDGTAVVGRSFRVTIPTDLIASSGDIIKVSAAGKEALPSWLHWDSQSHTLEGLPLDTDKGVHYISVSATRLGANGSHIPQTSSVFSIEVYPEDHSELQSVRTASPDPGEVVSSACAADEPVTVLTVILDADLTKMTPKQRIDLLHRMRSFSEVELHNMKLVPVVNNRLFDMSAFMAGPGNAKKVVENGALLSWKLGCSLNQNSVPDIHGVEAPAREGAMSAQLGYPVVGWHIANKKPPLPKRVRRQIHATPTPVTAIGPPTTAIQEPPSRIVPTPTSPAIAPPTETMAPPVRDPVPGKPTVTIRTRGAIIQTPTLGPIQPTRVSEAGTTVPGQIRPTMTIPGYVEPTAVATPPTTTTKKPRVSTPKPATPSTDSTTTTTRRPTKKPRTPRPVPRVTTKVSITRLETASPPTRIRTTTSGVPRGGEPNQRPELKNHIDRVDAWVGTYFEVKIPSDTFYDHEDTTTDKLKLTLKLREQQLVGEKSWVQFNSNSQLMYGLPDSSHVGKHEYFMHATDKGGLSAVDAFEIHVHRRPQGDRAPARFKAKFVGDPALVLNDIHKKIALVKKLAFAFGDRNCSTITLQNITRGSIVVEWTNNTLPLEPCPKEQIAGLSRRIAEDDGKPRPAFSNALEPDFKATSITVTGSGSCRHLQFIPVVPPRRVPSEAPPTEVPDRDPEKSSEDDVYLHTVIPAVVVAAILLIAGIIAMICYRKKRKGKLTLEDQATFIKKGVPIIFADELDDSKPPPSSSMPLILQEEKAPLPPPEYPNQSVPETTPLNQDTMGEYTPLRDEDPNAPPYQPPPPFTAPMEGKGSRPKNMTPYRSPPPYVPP
UniProt Q16850: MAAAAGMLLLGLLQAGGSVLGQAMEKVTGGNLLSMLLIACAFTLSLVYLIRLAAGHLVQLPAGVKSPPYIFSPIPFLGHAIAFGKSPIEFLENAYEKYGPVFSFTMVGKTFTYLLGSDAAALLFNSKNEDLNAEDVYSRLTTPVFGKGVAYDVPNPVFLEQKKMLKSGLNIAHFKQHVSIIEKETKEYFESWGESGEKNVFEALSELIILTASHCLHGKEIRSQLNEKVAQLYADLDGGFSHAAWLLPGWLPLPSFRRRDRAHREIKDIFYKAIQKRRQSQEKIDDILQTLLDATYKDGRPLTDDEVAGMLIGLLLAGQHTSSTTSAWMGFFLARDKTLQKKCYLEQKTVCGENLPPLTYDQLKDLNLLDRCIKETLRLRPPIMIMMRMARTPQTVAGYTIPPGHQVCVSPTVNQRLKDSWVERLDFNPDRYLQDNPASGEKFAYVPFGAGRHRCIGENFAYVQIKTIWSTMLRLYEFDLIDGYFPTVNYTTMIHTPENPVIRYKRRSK
UniProt Q9UJU6: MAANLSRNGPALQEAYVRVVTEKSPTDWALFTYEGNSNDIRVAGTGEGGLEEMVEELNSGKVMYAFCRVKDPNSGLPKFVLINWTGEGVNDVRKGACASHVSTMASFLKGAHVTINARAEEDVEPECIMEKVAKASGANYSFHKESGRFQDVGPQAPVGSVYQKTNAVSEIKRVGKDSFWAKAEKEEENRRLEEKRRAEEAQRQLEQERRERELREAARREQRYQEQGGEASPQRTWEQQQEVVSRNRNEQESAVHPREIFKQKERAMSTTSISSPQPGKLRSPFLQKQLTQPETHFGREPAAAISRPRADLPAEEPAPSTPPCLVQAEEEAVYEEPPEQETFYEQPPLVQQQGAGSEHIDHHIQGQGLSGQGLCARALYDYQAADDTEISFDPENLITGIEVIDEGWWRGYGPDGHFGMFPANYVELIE
UniProt Q8NA75: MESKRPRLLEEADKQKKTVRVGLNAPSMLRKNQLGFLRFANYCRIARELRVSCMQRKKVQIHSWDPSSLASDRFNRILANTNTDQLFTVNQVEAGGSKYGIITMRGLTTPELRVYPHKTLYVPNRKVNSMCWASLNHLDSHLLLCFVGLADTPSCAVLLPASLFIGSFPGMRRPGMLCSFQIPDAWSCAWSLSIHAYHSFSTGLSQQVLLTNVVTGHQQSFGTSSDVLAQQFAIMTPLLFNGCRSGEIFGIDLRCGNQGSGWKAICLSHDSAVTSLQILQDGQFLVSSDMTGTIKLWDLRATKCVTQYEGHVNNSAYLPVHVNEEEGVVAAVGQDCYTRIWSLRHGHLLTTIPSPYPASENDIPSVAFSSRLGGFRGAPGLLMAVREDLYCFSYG
UniProt O60888: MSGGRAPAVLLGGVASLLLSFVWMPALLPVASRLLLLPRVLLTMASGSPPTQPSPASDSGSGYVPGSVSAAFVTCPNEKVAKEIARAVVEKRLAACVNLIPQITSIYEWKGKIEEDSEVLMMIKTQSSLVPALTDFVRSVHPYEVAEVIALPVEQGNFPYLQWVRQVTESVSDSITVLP
UniProt P35222, whole entry, looked up: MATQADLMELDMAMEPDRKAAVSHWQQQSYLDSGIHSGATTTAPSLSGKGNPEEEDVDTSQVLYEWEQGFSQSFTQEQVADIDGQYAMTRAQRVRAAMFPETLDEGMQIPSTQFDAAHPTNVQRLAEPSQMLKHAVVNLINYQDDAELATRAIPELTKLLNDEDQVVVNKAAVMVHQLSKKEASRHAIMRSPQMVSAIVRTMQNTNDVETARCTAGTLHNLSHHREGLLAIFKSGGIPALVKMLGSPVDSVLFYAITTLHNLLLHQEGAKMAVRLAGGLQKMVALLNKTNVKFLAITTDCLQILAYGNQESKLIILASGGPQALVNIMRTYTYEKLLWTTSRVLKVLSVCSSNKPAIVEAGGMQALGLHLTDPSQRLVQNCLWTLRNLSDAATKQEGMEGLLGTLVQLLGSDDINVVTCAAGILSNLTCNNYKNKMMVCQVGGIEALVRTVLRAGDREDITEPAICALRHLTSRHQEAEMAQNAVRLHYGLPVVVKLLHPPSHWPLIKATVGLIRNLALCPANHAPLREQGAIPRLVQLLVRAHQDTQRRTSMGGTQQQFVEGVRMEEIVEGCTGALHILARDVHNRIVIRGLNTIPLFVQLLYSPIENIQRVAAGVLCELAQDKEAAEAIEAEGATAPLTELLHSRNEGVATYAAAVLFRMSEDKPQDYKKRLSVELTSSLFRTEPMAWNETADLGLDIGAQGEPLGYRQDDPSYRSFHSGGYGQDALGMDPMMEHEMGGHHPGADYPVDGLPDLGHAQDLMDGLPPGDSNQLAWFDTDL
UniProt Q86T65: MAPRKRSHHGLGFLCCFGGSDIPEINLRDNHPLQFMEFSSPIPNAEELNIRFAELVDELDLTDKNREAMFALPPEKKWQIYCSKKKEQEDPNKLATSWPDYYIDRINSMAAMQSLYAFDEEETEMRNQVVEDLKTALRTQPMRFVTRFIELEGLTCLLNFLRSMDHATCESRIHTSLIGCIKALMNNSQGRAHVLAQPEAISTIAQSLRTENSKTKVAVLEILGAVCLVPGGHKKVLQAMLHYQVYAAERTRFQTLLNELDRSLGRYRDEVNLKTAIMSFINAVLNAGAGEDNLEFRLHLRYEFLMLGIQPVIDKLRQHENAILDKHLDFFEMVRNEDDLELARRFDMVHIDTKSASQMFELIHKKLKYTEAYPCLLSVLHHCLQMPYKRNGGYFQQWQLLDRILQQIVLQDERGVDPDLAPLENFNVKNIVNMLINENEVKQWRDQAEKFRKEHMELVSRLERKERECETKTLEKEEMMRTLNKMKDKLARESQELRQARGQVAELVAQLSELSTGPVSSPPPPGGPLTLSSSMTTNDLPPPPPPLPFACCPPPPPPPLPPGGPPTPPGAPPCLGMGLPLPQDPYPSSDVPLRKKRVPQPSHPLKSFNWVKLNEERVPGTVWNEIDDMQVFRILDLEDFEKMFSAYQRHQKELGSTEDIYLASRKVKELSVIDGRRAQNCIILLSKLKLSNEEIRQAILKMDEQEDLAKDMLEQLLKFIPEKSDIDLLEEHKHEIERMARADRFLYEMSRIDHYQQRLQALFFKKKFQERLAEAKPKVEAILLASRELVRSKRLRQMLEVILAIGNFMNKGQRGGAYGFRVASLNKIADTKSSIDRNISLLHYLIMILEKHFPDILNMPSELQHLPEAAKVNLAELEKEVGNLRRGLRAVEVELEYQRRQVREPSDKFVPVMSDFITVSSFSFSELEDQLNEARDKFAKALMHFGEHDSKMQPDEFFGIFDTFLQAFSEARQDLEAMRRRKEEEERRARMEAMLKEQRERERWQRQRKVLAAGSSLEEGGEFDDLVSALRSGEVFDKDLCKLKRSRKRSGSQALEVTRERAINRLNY
UniProt Q99418: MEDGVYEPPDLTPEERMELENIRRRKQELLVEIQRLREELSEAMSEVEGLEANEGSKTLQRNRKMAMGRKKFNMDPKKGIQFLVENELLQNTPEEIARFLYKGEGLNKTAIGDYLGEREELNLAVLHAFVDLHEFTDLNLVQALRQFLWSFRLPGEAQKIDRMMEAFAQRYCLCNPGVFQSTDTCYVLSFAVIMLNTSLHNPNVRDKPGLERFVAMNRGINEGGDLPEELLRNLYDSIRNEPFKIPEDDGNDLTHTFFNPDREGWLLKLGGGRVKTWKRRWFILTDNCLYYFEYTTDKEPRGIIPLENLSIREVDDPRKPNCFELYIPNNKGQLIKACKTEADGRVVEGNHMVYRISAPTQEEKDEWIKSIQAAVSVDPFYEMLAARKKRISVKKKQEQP
UniProt Q5H9S7: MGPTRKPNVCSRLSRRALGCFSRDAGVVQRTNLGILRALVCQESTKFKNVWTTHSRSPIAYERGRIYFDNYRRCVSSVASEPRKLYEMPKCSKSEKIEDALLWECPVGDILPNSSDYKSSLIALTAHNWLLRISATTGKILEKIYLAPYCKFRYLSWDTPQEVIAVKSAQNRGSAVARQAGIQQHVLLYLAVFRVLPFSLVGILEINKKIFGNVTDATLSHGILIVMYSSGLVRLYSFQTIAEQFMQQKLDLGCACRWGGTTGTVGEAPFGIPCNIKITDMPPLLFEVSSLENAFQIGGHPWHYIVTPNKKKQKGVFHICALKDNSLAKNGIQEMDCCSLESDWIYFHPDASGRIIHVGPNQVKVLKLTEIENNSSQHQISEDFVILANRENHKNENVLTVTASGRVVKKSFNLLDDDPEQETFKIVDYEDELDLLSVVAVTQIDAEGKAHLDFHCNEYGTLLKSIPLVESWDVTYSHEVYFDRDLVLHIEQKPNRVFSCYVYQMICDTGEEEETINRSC
UniProt P01036: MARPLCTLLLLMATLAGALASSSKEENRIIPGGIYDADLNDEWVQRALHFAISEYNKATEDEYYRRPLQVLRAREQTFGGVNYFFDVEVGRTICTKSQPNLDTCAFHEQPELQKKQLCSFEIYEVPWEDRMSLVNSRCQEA
UniProt Q9BTE7: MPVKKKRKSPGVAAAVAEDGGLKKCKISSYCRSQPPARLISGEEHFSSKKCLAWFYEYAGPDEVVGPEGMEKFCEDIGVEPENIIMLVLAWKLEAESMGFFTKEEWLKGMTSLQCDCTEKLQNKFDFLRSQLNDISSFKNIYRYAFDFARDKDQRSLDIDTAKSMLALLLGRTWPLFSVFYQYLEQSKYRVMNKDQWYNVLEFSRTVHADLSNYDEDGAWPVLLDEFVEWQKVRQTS
UniProt P49447: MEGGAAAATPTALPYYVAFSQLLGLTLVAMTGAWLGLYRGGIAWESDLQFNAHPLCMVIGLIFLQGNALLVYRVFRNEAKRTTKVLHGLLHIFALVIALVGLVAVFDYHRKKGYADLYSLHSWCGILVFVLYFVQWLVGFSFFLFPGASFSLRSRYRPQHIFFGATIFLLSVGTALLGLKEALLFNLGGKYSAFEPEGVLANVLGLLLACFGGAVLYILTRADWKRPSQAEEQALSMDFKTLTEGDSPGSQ
UniProt Q9BWK5: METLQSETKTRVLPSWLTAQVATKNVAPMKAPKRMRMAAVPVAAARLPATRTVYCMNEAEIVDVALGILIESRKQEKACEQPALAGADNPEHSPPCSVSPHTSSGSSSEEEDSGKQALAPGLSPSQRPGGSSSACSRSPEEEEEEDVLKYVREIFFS
UniProt Q96DE9: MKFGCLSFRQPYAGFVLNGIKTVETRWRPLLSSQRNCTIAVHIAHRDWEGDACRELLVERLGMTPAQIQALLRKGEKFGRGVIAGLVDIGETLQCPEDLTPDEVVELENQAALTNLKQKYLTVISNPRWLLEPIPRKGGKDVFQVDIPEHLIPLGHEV
UniProt O95715: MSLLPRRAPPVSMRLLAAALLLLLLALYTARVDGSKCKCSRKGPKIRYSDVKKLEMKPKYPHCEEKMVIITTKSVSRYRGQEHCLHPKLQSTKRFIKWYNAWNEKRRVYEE

[2] = compound: C[C@@H](Oc1cc(-c2cnn(C3CCNCC3)c2)cnc1N)c1c(Cl)ccc(F)c1Cl [crizotinib]
How it was run: as §1

[3] = compound: C[C@@H]1COCCN1C2=NC(=NC(=C2)C3(CC3)S(=O)(=O)C)C4=C5C=CNC5=CC=C4
How it was run: as §1

[4] = compound: C[C@H](C1=CC=C(C=C1)C(=O)NC2=C3C=CNC3=NC=C2)N
How it was run: as §1

[5] = compound: Cc1cc(Nc2cc(CN3CCOCC3)c3nc(C)c(Cc4ccc(Cl)cc4F)n3n2)n[nH]1 [gandotinib]
How it was run: as §1

[6] = compound: Cc1cc(SCc2sc(-c3ccc(C(F)(F)F)cc3)nc2C)ccc1OCC(=O)O
How it was run: as §1

[7] = compound: Cc1ccc(-n2nc(C(C)(C)C)cc2NC(=O)Nc2ccc(OCCN3CCOCC3)c3ccccc23)cc1 [doramapimod]
How it was run: as §1

[8] = compound: Cc1ccc(C(=O)N(CCCN)[C@@H](c2nc3cc(Cl)ccc3c(=O)n2Cc2ccccc2)C(C)C)cc1 [ispinesib]
How it was run: as §1

[9] = compound: C[C@H](Nc1ncnc2nc[nH]c12)c1cc2cccc(Cl)c2c(=O)n1-c1ccccc1 [duvelisib]
How it was run: as §1

[10] = compound: Cc1cc(Nc2cc(N3CCN(C)CC3)nc(Sc3ccc(NC(=O)C4CC4)cc3)n2)n[nH]1 [tozasertib]
How it was run: as §1

Measured: log2 fold change

CUX1 isoform 3 (UniProt P39880)
inactive: [1] 0.02 | [2] -0.023 | [3] 0.086 | [4] -0.002 | [5] -0.048 | [6] -0.026 | [7] 0.019 | [8] -0.101

CYB561A3 isoform 2 (UniProt Q8NBI2)
inactive: [1] 0 | [2] -0.05 | [4] -0.073 | [5] -0.103 | [6] -0.014 | [7] 0.021 | [8] -0.139

CTSV (UniProt O60911)
active: [2] -1.59 | [8] -0.453
inactive: [1] 0.073 | [3] 0.099 | [4] -0.01 | [5] -0.334 | [6] -0.04 | [7] -0.005

DCP2 (UniProt Q8IU60)
active: [2] 0.779
inactive: [1] -0.211 | [3] 0.119 | [4] 0.009 | [6] 0.095 | [7] 0.147 | [8] -0.045

DAG1 (UniProt Q14118)
inactive: [1] 0.037 | [2] 0.119 | [3] 0.132 | [4] 0.032 | [5] -0.006 | [6] -0.032 | [7] -0.001 | [8] -0.001

CYP51A1 (UniProt Q16850)
inactive: [1] 0.028 | [2] 0.12 | [3] -0.162 | [4] 0.147 | [5] -0.111 | [6] 0 | [7] 0.156 | [8] 0.117

DBNL isoform 3 (UniProt Q9UJU6)
inactive: [1] 0.041 | [2] -0.116 | [3] 0.073 | [4] -0.016 | [5] -0.094 | [6] -0.015 | [7] 0.054 | [8] -0.048

CWF19L2 (UniProt Q2TBE0)
inactive: [1] -0.024 | [2] -0.034 | [4] 0.027 | [6] -0.001 | [7] -0.021 | [8] -0.115
active: [5] 0.777

DCAF4L2 (UniProt Q8NA75)
inactive: [1] 0.064 | [2] 0.48 | [4] -0.069 | [9] 0.036 | [5] -0.025 | [10] -0.004 | [6] -0.011 | [7] 0.258 | [8] -0.069

CUTA isoform 2 (UniProt O60888)
inactive: [1] 0.073 | [2] -0.045 | [3] 0.021 | [4] -0.001 | [5] 0.131 | [6] -0.049 | [7] -0.019 | [8] 0.109

CTSL (UniProt P07711)
active: [2] -0.489
inactive: [1] 0.025 | [3] -0.02 | [4] 0.021 | [5] 0.006 | [6] -0.013 | [7] 0.018 | [8] -0.199

CTNNB1 (UniProt P35222)
inactive: [2] 0.024 | [3] -0.087 | [4] -0.102 | [5] 0.336 | [6] -0.024 | [7] 0.047 | [8] 0.078
active: [1] 0.666

DCUN1D1 (UniProt Q96GG9)
inactive: [1] -0.027 | [2] -0.061 | [3] -0.047 | [4] -0.067 | [5] -0.059 | [6] 0.002 | [7] -0.053 | [8] 0.036

CYBA (UniProt P13498)
inactive: [1] 0.069 | [2] -0.108 | [3] 0.024 | [4] -0.045 | [5] -0.231 | [6] 0.04 | [7] 0.01
active: [8] -0.488

DAAM2 (UniProt Q86T65)
inactive: [2] 0.087 | [3] 0.338 | [9] 0.048 | [6] 0.023 | [7] 0.11 | [8] -0.061

CWC22 (UniProt Q9HCG8)
inactive: [2] -0.026 | [7] -0.042

CYB5A (UniProt P00167)
inactive: [1] -0.043 | [3] 0.16 | [9] 0.059 | [5] 0.082 | [6] -0.023 | [8] 0.079

DBNDD1 isoform 3 (UniProt Q9H9R9)
inactive: [1] -0.198 | [3] -0.014

CYTH2 (UniProt Q99418)
inactive: [2] -0.056 | [9] 0.07 | [10] -0.207 | [6] -0.046 | [7] -0.103

DCAF17 (UniProt Q5H9S7)
inactive: [3] 0.022

CTNS isoform 2 (UniProt O60931)
inactive: [1] -0.114 | [4] 0.006

CYTH1 (UniProt Q15438)
inactive: [3] -0.044 | [9] -0.013 | [10] 0.117 | [6] 0.056

CTSF (UniProt Q9UBX1)
inactive: [3] 0.07 | [5] 0.024

DAAM1 (UniProt Q9Y4D1)
inactive: [4] -0.06 | [9] 0.043 | [6] 0.195

CYP24A1 (UniProt Q07973)
inactive: [2] -0.043 | [5] 0.535 | [6] -0.13 | [7] 0.283 | [8] -0.244

DAPK1 isoform 3 (UniProt P53355)
inactive: [1] -0.03 | [3] -0.031 | [8] -0.23

DBNL (UniProt Q9UJU6)
inactive: [4] -0.166

Looked up one by one from above (two):
DBNL (UniProt Q9UJU6)
inactive: [4] -0.166

DAPK1 isoform 3 (UniProt P53355)
inactive: [1] -0.03 | [3] -0.031 | [8] -0.23

Continued:

CSPG5 (UniProt O95196)
inactive: [1] 0.143 | [3] 0.224

CYBRD1 (UniProt Q53TN4)
inactive: [2] 0.01 | [4] 0.116 | [9] 0.028 | [5] 0.157 | [6] 0.017 | [7] 0.008 | [8] -0.058

CST4 (UniProt P01036)
inactive: [1] 0.406 | [4] -0.174

CXXC5 (UniProt Q7LFL8)
inactive: [3] -0.006 | [9] 0.078 | [6] -0.211 | [8] 0.033

CTIF (UniProt O43310)
inactive: [1] 0.093 | [3] 0.023 | [4] 0.176 | [10] -0.108 | [8] -0.012

DCUN1D5 (UniProt Q9BTE7)
inactive: [2] 0.059 | [5] -0.156 | [10] 0.092 | [7] -0.005 | [8] -0.237

DCP1B (UniProt Q8IZD4)
inactive: [10] -0.047

CYB561 (UniProt P49447)
inactive: [2] 0.228 | [4] -0.067 | [9] 0.066 | [5] -0.249 | [10] 0.155 | [6] -0.032 | [7] 0.045 | [8] 0.011

CTNNBIP1 (UniProt Q9NSA3)
inactive: [4] 0.008 | [9] 0.211 | [5] -0.065 | [6] 0.032

CYP4V2 (UniProt Q6ZWL3)
inactive: [2] -0.087 | [3] 0.036 | [4] 0.011 | [9] -0.002 | [5] 0.071 | [6] 0.005 | [7] 0.049 | [8] -0.066

CST1 (UniProt P01037)
inactive: [1] 0.2 | [3] 0.123 | [9] -0.242 | [6] -0.119

CTDSP1 (UniProt Q9GZU7)
inactive: [5] -0.065 | [10] -0.192 | [8] -0.269

DAPK2 isoform 2 (UniProt Q9UIK4)
inactive: [1] -0.122 | [2] 0.065 | [7] -0.064

CYP2R1 (UniProt Q6VVX0)
inactive: [4] 0.006 | [10] 0.04

CUL7 isoform 2 (UniProt Q14999)
inactive: [3] -0.019 | [9] -0.229 | [5] 0.44 | [10] -0.029 | [6] 0.119 | [8] -0.288

DCAF4 (UniProt Q8WV16)
inactive: [1] -0.06 | [3] 0.032 | [5] 0.07 | [6] -0.056 | [8] -0.165

CTDNEP1 (UniProt O95476)
inactive: [1] -0.055 | [4] 0.022 | [9] 0.02 | [5] -0.013 | [10] 0.1 | [6] 0.179

DCAF12 (UniProt Q5T6F0)
active: [5] -0.735
inactive: [1] -0.101

DCBLD2 isoform 2 (UniProt Q96PD2)
inactive: [9] 0.285 | [6] -0.105

CSRP2 (UniProt Q16527)
inactive: [1] -0.078 | [4] 0.021 | [10] -0.032 | [8] -0.234

CST6 (UniProt Q15828)
inactive: [1] 0.038 | [3] 0.09 | [10] 0.276

CYREN isoform 4 (UniProt Q9BWK5)
inactive: [2] 0.016 | [9] 0.202 | [5] 0.018 | [6] -0.183 | [7] 0.132

CYREN (UniProt Q9BWK5)
inactive: [2] 0.036 | [5] -0.053 | [7] 0.051 | [8] 0.003

Quoted from above (four entries):
DCBLD2 isoform 2 (UniProt Q96PD2)
inactive: [9] 0.285 | [6] -0.105

CSRP2 (UniProt Q16527)
inactive: [1] -0.078 | [4] 0.021 | [10] -0.032 | [8] -0.234

CST6 (UniProt Q15828)
inactive: [1] 0.038 | [3] 0.09 | [10] 0.276

CYREN isoform 4 (UniProt Q9BWK5)
inactive: [2] 0.016 | [9] 0.202 | [5] 0.018 | [6] -0.183 | [7] 0.132

Next entries follow.

DCBLD1 (UniProt Q8N8Z6)
inactive: [3] 0.166 | [4] -0.066 | [9] -0.019 | [6] -0.159

CXorf40B (UniProt Q96DE9)
inactive: [2] 0.028 | [3] 0.025 | [4] 0.078 | [9] 0.161 | [5] -0.015 | [6] 0.099 | [7] -0.143 | [8] -0.025

CXCL14 (UniProt O95715)
inactive: [1] -0.181 | [2] 0.215 | [7] 0.166

CTDSPL2 (UniProt Q05D32)
inactive: [3] 0.086 | [4] 0.143 | [9] -0.077 | [5] -0.016 | [6] 0.155
